Drawing on article PMC4272302, this text covers binding for one substance.

By UniProt entry, the sequences of proteins in these tests, tags left out. Where a name states a change or a piece, a line headed by the entry shows the natural chain unless it says otherwise.
UniProt Q14BB9: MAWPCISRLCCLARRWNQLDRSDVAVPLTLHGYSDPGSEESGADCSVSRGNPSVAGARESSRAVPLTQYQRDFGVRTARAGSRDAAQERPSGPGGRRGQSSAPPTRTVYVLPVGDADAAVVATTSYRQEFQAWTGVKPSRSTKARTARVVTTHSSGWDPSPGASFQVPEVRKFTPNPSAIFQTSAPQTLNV

For this experiment, the target named is MAP6d1-ΔMn3-myc (mouse) (UniProt Q14BB9). The experiment can be described thus: co-IP; COS-7 cells co-transfected with a GFP-tagged and a myc-tagged MAP6d1; lysed 15 h after transfection in IP buffer (50 mM Tris, 150 mM NaCl, 0.05% deoxycholate, 1% Triton X-100, 10% glycerol, pH 8.0); IP with anti-myc (Protein G-Sepharose) or anti-GFP (Protein A-Sepharose), 1 h at 4°C, five washes; western blot.

Results are given in words; binding and its absence hold for the method and conditions named. In cells and extracts the contact can be indirect.

For MAP6d1-GFP (from UniProt Q14BB9 1-191), the binding result was “no binding”.
